Results reported in PubChem BioAssay AID2685 (National Center for Advancing Translational Sciences (NCATS), 2010).
The other results are listed elsewhere or left out. Further columns of the screen follow, without active or inactive calls. Most of these compounds were active or inconclusive in the main read-out, so they are no random draw. The note in brackets gives the kind of curve behind each potency; many fits are weak.

Assay: qHTS Assay for Lipid Storage Modulators in Drosophila S3 Cells;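 for cell number change: cells counted by Cell Tracker Red CMTPX staining in the red channel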
Conditions: BODIPY lipid droplet fluorescence, 18-24 h; for cell number change: measured here: cell count max response, cells fed with added oleic acid
Summary of the method: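 Laser-scanning cytometry quantifies lipid droplet accumulation (500–530 nm total intensity; droplet/cell object ratio) in oleic acid-fed (400 uM added) Drosophila S3 cells treated with a concentration series. 20 uM Triacsin C defined 100% inhibition.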

[1] = measured here: lipid fluorescence (Fed channel) AC50, cells fed with added oleic acid
[2] = measured here: cell number channel AC50, cells fed with added oleic acid

SMILES | cell number change | AC50 [1] | AC50 [2]
CC(C)c1ccc(NC(=O)COC(=O)C2=COCCO2)cc1 | 2.16% | 2910 nM [falling, partial curve] | 
C[C@@]12CC(=O)NC1N(C(=O)c1cccc(C(F)(F)F)c1)C(c1ccccc1O)C2 (some centres not stated) | -0.424% |  | 580 nM [falling, single point]
Cn1c(O)c(/C=C2\C=NN=C2c2ccccc2)sc1=S | -54.7% | 29100 nM [falling, single point] | 29100 nM [falling, single point]
O=C(O)CCCC(=O)Nc1ccccc1Br | -6.79% | 29100 nM [falling, single point] | 
CCc1c(C)nc2cc(C)[nH]n2c1=O | 7.17% | 3260 nM [falling, single point] | 
COCc1n[nH]c(=S)n1-c1cccc2ccccc12 | 8.01% | 4.61 nM [falling, full curve, poor fit] | 
COc1ccc(/C=C/C(=O)Nc2ccc3c(c2)CCC3)cc1OC | 25.4% | 32600 nM [rising, single point] | 
O=C(CSc1ccccc1)NC1=NCCS1 | 2.41% |  | 20.6 nM [falling, full curve, poor fit]
CCCc1nn(-c2ccccc2)c2c1C(c1cccs1)C(C#N)=C(N)O2 (configuration not stated) | -8.92% | 580 nM [rising, partial curve] | 461 nM [rising, full curve]
COc1ccc(C(=O)NCC(=O)OCC(=O)NC(=O)c2ccc(C(C)(C)C)cc2)cc1OC | 1.5% | 651 nM [falling, single point] | 
CC(=O)c1cccc(NC(=O)N2CCCC2C(=O)NCCC(C)C)c1 (configuration not stated) | -0.0696% |  | 
CCOC(=O)N1CCC(n2c(SCC(=O)NCCC3=CCCCC3)nc3ccccc3c2=O)CC1 | -36% |  | 10300 nM [falling, single point]
CCC(C)(C)NC(=O)C(C(C)C)N(CC1CCCO1)C(=O)CNS(=O)(=O)c1ccccc1 (configuration not stated) | 1.28% |  | 411 nM [falling, full curve]
CCOc1ccc(CN(C)CC(=O)NCc2ccc(F)cc2)cc1 | 14.1% | 2310 nM [rising, full curve, poor fit] | 
Cc1ccc2nc(SCC(=O)Nc3ccc4c(c3)OCO4)nc(=O)n2c1 | 35% |  | 1460 nM [rising, full curve]
Nc1nc(SCC(=O)Nc2ncc(C(F)(F)F)cc2Cl)n[nH]1 | -41.3% |  | 
Cc1nnc2ccc(N3CCN(c4ccccn4)CC3)nn12 | -32.6% | 29100 nM [falling, partial curve, poor fit] | 32600 nM [falling, single point]
C/C(=C\C(=O)c1ccc(C)cc1)Nc1cccc(O)c1 | -36.5% | 13000 nM [falling, partial curve, poor fit] | 32600 nM [falling, single point]
COc1ccc(CCNS(=O)(=O)CCNC(=O)c2ccc3c(c2)OCO3)cc1OC | -17.8% | 146 nM [falling, full curve, poor fit] | 146 nM [falling, full curve, poor fit]
COc1ccc(-c2nnc(COc3ccc4ccccc4c3)o2)cc1OC | 34.9% | 6510 nM [falling, partial curve, poor fit] | 2310 nM [rising, partial curve]

SMILES | cell number change | AC50 [1] | AC50 [2]
O=C(COC(=O)COc1ccc(Cl)cc1)Nc1ccc(N2CCOCC2)cc1 |  |  | 6510 nM [rising, single point]
CCCC[C@]12Cc3cc(C#N)ccc3C(O1)c1c(cc(C)n(-c3ccccc3)c1=O)O2 | 0.581% | 1190 nM [rising, partial curve] | 
Cc1oc2cc(O)ccc2c(=O)c1-c1ccccc1 | 24.5% |  | 
COc1ccc(C(=O)N/N=C/c2cc(Br)ccc2O)cc1OC | 12.4% |  | 
CC(=O)Nc1ccc(C(=O)OCC(=O)c2ccc(S(=O)(=O)N3CCCCC3)cc2)cc1 | -22.6% |  | 
CN(C)S(=O)(=O)c1cccc(NC(=O)COC(=O)c2cn(-c3ccccc3)nc2-c2ccccc2)c1 | -28.6% | 32600 nM [falling, partial curve, poor fit] | 820 nM [falling, full curve, poor fit]
Clc1ccc(Cn2nnc(-c3ccc(CN4CCOCC4)cc3)n2)cc1 | -10.6% |  | 
Cc1ccc(CN(C)C(=O)CN2C(=O)NC(c3ccccc3)(c3ccccc3)C2=O)c(C)c1 | 15.8% |  | 
COc1ccc(CCNS(=O)(=O)c2cc3c4c(c2)CCN4C(=O)CC3)cc1 |  |  | 231 nM [rising, full curve, poor fit]
CCn1c(COc2ccccc2OC)nc2ccccc21 | 0.992% | 1030 nM [rising, full curve, poor fit] | 
c1csc(-c2nnc(NC3CCCCC3)c3ccccc23)c1 | -20.1% | 29100 nM [falling, single point] | 
COc1cccc(OCc2ccc(C(=O)NCC3CCCO3)cc2)c1 (configuration not stated) | 12.5% | 14600 nM [rising, single point] | 
CCOC(=O)c1ccccc1NC(=O)COC(=O)C1=COCCO1 |  |  | 1840 nM [rising, partial curve, poor fit]
Cc1cccc(C(=O)N(NC(=O)Oc2ccccc2)C(C)(C)C)c1 | -27.9% | 29100 nM [falling, single point] | 
NCCCC(=O)O | -3.46% | 103 nM [falling, full curve, poor fit] | 
c1cncc(-c2nc(NCc3ccco3)c3ccccc3n2)c1 |  | 820 nM [rising, single point] | 
Cc1ncc(CC(=O)n2cc(C(=O)c3cc(Cl)ccc3O)cn2)s1 | 32% | 4110 nM [rising, single point] | 29100 nM [rising, single point]
N#Cc1c(-n2cccc2)cccc1-n1cccc1 | -15.6% | 3260 nM [falling, single point] | 
O=C(Nc1ccc(Cl)cc1F)c1cc(S(=O)(=O)N2CCCCC2)ccc1F | 38.1% |  | 13000 nM [rising, single point]
COc1ccccc1C(=O)OCCNC(=O)Cn1cnc2c1c(=O)n(C)c(=O)n2C | 96.7% | 1640 nM [rising, full curve] | 580 nM [rising, full curve]

Some values from the list.
cell number change, CCCC[C@]12Cc3cc(C#N)ccc3C(O1)c1c(cc(C)n(-c3ccccc3)c1=O)O2 is entered as 0.581%
AC50 [1], c1cncc(-c2nc(NCc3ccco3)c3ccccc3n2)c1 is entered as 820 nM [rising, single point]
cell number change, CCn1c(COc2ccccc2OC)nc2ccccc21 is entered as 0.992%
cell number change, CCCc1nn(-c2ccccc2)c2c1C(c1cccs1)C(C#N)=C(N)O2 (configuration not stated) is entered as -8.92%

(cont.)

SMILES | cell number change | AC50 [1] | AC50 [2]
Cc1cc2cc(C(c3nnnn3Cc3ccco3)N3CCCCC3)c(=O)[nH]c2cc1C (configuration not stated) | 7.32% |  | 731 nM [rising, single point]
CCOC(=O)CC1C(=O)NCCN1S(=O)(=O)c1ccc(F)cc1 (configuration not stated) | 125% | 7.31 nM [falling, full curve, poor fit] | 32600 nM [rising, partial curve, poor fit]
CCOC(=O)c1cnn(CCOC(=O)c2ccc(OC)cc2)c1NC(=O)c1ccc(OC)cc1 | 1.71% | 2310 nM [rising, partial curve] | 
C/C(CC(=O)NCc1ccc(Cl)cc1)=N\NC(=O)COc1ccc(C)cc1Br | 19.2% | 6510 nM [falling, single point] | 2060 nM [rising, single point]
CC(=O)Nc1ccc(S(=O)(=O)NC(CC(=O)NCCC2=CCCCC2)C(C)C)cc1 (configuration not stated) | 23.3% | 29100 nM [rising, single point] | 
COc1ccc(OC)c(CC(NC(C)=O)C(=O)NC2CCN(C(=O)c3cccc(C)c3)CC2)c1 (configuration not stated) | 8.06% |  | 
Cc1c(C)n2c(SCC(=O)N3CC(C)OC(C)C3)nnc2[nH]c1=O (configuration not stated) | -29.9% | 16400 nM [falling, single point] | 
COc1cccc(C(=O)O/N=C/c2ccc(Sc3ccc(C)cc3)nc2)c1 | 14.5% | 580 nM [falling, single point] | 
COc1ccc(OCc2cc(C(=O)NCC(C)Oc3cccnc3)no2)c(Cl)c1 (configuration not stated) | -15.9% |  | 
COc1cc2[nH]c(=O)n(Cc3ccc(C(=O)N4CCC(N5CCCCC5)CC4)cc3)c(=O)c2cc1OC |  | 8200 nM [falling, partial curve] | 
Cc1nn(Cc2ccccc2)c(C)c1C(=O)OCC(=O)c1cc(C)n(CC(F)(F)F)c1C | -43.9% | 1840 nM [falling, partial curve] | 16400 nM [falling, partial curve, poor fit]
CC(C)NC(=O)N1CCOCCOCCN(C(=O)NC(C)C)CCOCCOCC1 | -5.29% | 29100 nM [falling, single point] | 
Cc1ccc(S(=O)(=O)N(CC(O)CN2CCOCC2)c2cc(Cl)ccc2Cl)cc1 (configuration not stated) | -11.7% |  | 
COCCNC(=O)CN(c1ccc(F)cc1)S(=O)(=O)c1ccc2c(c1)OCCO2 |  |  | 731 nM [rising, full curve, poor fit]
Cc1c(C(=O)N2CCCC2)c(S(=O)(=O)N2CCN(c3ccccc3F)CC2)c(C)n1C | -7.08% | 580 nM [rising, single point] | 7310 nM [falling, single point]
COC(=O)c1ccc(NC(=O)COc2cccc3c2OC(C)(C)C3)cc1 |  | 164 nM [rising, full curve, poor fit] | 206 nM [rising, full curve, poor fit]
CC(=O)NC12CC3CC(C1)CC(C(=O)Nc1nc4c(C)cccc4s1)(C3)C2 |  | 1160 nM [falling, full curve] | 
CO/N=C(/CNC(=O)c1cccc(Cl)c1)c1ccc(Cl)cc1 |  | 1460 nM [rising, full curve, poor fit] | 6510 nM [rising, single point]
